Publication PMC5594048

Chains of the proteins cited; added tags and fusions are not shown. Lines headed by an entry give the natural chain unless they say otherwise; changes in a name come on top.
UniProt Q39026: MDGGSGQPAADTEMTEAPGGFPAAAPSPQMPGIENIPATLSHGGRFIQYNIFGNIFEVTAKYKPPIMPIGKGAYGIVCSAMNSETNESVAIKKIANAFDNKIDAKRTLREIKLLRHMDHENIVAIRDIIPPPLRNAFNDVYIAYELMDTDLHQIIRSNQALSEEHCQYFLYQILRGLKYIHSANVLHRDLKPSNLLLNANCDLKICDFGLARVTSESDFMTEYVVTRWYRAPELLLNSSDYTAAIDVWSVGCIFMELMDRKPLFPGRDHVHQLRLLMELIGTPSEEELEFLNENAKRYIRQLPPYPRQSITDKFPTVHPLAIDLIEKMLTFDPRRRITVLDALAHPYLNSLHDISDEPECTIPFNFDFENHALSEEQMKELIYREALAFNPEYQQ
UniProt Q6NN02: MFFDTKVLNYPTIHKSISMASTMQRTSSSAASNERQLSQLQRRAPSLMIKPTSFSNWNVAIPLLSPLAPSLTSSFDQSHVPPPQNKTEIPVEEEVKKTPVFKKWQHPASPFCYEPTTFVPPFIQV

What was measured:
Experiment in all cases: split reporter; BiFC in Arabidopsis mesophyll protoplasts transiently co-expressing cYFP fusions of PRP/PH1/PH2 and nYFP fusions of MAPKs; confocal microscopy; for wild type against docking site mutants with MPK6 a p35S-CFP plasmid was co-transformed and YFP/CFP ratios were calculated
[1] = biological target: MPK6 fused to the N-terminal half of YFP (MPK6-nYFP) (Arabidopsis thaliana) (UniProt Q39026)
[2] = biological target: T1, MPK8 fused to the N-terminal half of YFP (MPK8-nYFP) (Arabidopsis thaliana) (UniProt Q9LM33)
T1 sequence: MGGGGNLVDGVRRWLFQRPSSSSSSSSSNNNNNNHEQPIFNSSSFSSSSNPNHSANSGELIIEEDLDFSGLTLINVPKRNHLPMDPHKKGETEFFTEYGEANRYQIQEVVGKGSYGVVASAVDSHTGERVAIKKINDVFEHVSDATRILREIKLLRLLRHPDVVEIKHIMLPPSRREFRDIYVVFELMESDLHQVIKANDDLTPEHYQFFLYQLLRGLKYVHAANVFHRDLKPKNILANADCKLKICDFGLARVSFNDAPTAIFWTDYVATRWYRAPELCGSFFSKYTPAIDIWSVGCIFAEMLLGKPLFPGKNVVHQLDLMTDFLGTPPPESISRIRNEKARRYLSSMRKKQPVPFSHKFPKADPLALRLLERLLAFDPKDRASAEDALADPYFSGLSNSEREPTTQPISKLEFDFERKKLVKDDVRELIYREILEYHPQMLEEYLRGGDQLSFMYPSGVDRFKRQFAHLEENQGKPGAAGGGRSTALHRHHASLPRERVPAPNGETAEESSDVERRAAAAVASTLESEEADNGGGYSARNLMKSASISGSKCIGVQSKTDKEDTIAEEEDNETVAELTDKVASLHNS

[3] = biological target: T2, MPK11 fused to the N-terminal half of YFP (MPK11-nYFP) (Arabidopsis thaliana) (UniProt Q9LMM5)
T2 sequence: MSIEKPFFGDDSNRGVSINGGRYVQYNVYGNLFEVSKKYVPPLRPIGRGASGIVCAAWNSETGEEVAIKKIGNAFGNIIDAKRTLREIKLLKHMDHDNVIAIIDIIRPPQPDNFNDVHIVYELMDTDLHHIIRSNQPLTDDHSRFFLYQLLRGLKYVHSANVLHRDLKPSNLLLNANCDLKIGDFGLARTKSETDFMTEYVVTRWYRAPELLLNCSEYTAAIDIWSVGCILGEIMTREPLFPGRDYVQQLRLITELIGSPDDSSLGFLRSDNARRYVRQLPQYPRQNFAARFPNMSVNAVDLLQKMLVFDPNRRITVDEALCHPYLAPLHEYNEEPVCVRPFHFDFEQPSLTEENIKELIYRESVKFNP

[4] = biological target: T3, MPK3 fused to the N-terminal half of YFP (MPK3-nYFP) (Arabidopsis thaliana) (UniProt Q39023)
T3 sequence: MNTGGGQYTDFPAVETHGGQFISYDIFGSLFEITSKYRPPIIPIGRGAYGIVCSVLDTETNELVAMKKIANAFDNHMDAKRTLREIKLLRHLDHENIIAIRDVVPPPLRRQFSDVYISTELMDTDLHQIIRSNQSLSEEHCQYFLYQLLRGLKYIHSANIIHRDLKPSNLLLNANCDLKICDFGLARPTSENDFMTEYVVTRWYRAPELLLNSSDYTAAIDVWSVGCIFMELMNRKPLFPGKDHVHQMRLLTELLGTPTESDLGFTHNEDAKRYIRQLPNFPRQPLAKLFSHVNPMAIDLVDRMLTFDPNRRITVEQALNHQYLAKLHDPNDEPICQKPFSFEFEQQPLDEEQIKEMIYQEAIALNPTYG

| binding [1] | binding [2] | binding [3] | binding [4] | Substance |
| --- | --- | --- | --- | --- |
| binds weakly | – | – | – | PH1 MAPK docking site mutant fused to cYFP (PH1 DSM-cYFP) (from UniProt Q6NN02) |
| binds | – | – | – | PH1 fused to the C-terminal half of Yellow Fluorescent Protein (PH1-cYFP) (from UniProt Q6NN02) |
| – | no binding | binds | binds | PH2 fused to the C-terminal half of Yellow Fluorescent Protein (PH2-cYFP) (Arabidopsis thaliana) |
| – | no binding | binds | binds | PRP fused to the C-terminal half of Yellow Fluorescent Protein (PRP-cYFP) (Arabidopsis thaliana) |

These are yes or no findings as the source states them, for the method shown. In cells and extracts the contact can be indirect. For some assays here: Binding can be weak; no strength is given. For some assays here: Where a sequence is shown, tags or fusion partners need not be part of it.
